Here are results for one molecule from article PMC7545189, “Structural characterization of the ICOS/ICOS-L immune complex reveals high molecular mimicry by therapeutic antibodies” (Nature Communications, 2020).

The target in this experiment is T1, human ICOS-L ectodomain (residues 19-248), His-tagged, immobilised on Ni-NTA biosensors (human) (UniProt O75144).
T1 sequence: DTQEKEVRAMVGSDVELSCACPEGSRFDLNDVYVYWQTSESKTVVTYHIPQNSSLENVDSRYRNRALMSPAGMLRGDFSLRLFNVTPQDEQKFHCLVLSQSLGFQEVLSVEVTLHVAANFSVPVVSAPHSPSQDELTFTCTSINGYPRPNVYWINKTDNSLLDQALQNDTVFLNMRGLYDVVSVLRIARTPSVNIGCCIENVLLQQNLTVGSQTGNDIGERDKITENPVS
The experiment is described as follows: BLI; competition: immobilised ICOS-L with ICOS or ICOS + STIM003 Fab; immobilised ICOS with ICOS-L or ICOS-L + prezalumab Fab; both purified. (In general: BLI is a label-free optical method that tracks binding on a fibre tip over time.)

No constants are given. Whether binding was seen depends on the method and setting. Some binding calls cover weakened binding; strength is not graded here. Sequences can lack the tags named with a protein.

B1: human ICOS ectodomain (residues 21-138), untagged, disulfide-linked homodimer (receptor, UniProt Q9Y6W8 21-138, looked up)
chain: EINGSANYEMFIFHNGGVQILCKYPDIVQQFKMQLLKGGQILCDLTKTKGSGNTVSIKSLKFCHSQLSNNSVSFFLYNLDHSHANYYFCNLSIFDPPPFKVTLTGGYLHIYESQLCCQ
notes: human ICOS ectodomain, UniProtKB Q9Y6W8, residues 21-138; Residues of the TEV site probably remain at the C-terminus after cleavage; also called ICOS WT; ICOS disulfide-linked homodimers; source: HEK 293F, transiently transfected, purified (HisTrap Ni-NTA, TEV digestion, second Ni-NTA, Superdex 200); not shown: Venus (monomeric variant), C-terminal, cleaved; His6, C-terminal, cleaved
B1: the binding entry is “binds”.
